# In US20210324109A1:
# The chains behind the UniProt entries cited, without tags or fusion partners. Where a name states a change or a piece, a line headed by the entry shows the natural chain unless it says otherwise.
# UniProt P00740: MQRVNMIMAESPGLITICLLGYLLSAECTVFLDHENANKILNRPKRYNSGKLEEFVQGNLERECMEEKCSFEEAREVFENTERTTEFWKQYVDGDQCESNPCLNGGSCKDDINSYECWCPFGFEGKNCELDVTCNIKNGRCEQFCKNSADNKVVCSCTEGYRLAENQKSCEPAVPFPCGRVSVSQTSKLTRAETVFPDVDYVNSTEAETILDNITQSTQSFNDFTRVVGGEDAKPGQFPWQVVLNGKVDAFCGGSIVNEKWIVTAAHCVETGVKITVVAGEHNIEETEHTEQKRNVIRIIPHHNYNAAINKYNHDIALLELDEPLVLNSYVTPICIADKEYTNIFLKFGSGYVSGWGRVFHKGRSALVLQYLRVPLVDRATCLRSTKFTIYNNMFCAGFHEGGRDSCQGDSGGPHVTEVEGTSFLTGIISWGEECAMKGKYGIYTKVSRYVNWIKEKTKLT
# No constants are given. Whether binding was seen depends on the method and setting. Binding can be weak; no strength is given.
# B1: hA69-PF (humanized A69 homodimer) (antibody, human IgG4, V domains shown)
# VH: EVQLVQSGAEVVKPGSSVKVSCTASGYTFSDYYMHWVRQAPGEGLEWMGYINPSSGYTKYNRKFRDRVTITADKSTSTAYMELSSLRSEDTAVYYCARGGLGYYLDYWGEGTTVTVSS
# VL: DIVMTQSPSSLSASVGDRVTITCKASQNVGTAVAWYQQKPGKAPKLLIYSASYRYSGVPSRFSGSRYGTDFTLTISSLQPEDLATYYCQQYSNYITFGQGTKVEIK
# Legend:
# [1] = biological target: Factor IXaβ (Enzyme Research Laboratories) (UniProt P00740); experiment: ELISA, plate-coated Factor IXa
# [2] = biological target: Factor IXaβ (Enzyme Research Laboratories) (UniProt P00740); experiment: ELISA, plate-coated Factor IXa 1 µg/ml, anti-human IgG4 detection
binder,measurement,setting,value
B1,binding,[1],binds
same,binding,[2],binds
